Values of other authors, collected in patent US6939563B2, “Non-fermented osmotic laxative and method for treating and preventing colorectal cancers” (Inra-Institut National de la Recherche Agronomique, priority 1998, dated 2005).
For at least one compound, name, drawing or mass did not settle the structure.

Tested on: colon carcinogenesis in rats
Settings: 3 x AOM 15 mg/kg, cited from earlier work

For `CC(C)=CCC/C(C)=C/COc1ccc2ccc(=O)oc2c1` [Auraptene], which ACF/rat (Hesperidin 1000 ppm (control 89 ± 17), Acetoxychavicol acet 100 ppm (control 118 ± 28), Auraptene (control 157 ± 21)) is on record?
Its ACF/rat is 69 ± 6.

What about the Crypt/ACF (controls 2.77 (Hesperidin), 2.54 (Acetoxychavicol acet), 2.91 (Auraptene)) of the same molecule?
Its Crypt/ACF is 2.19.
